These are yes or no findings as the source states them, for the method shown. In cells and extracts the contact can be indirect. Binding calls can cover weak binding; strength is not graded here. Sequences can lack the tags named with a protein.
Biological target: Myc-tagged RPL12 (Ribosomal Protein L12) (D. melanogaster)
Test: co-IP; S2 cells co-transfected with FLAG-tagged Corto constructs and Myc-tagged ribosomal proteins; cell extracts; immunoprecipitation with anti-FLAG or anti-Myc, Western blot with the same antibodies

B1: FLAG-tagged full-length Corto (protein, UniProt P41046 1-550)
chain: MTMAACYANYDMSSLSHGMSALSALQQQQQQQQQQHSQTQQQHHHQQQQQHMYHAAVAAHQQQLLQQQQQQQHHRHHHQPANTSSSSNSRHSHAAATQTQVAAAVANSRQQQQQQQQQQQQQQQQQTASSNSNAAPAPSPQKDYSIPLHVDCSVEYELPNQPKPPAGQRVEPLLMIHPCYFRKMESQRRSPFVNNMHATARAVSSSSLSSGAALGGGGSGAAVATAPSSSAARRGARAATSAQQQQQQQQRYQQQQQQLRQQHQQMSQMSQQAHYPQQQSSLVRQHQQQQQQQQQQQRASSNQSQRQSQSQSQSQSHAANSAAAAAAQASIAAAAAGQWDQLAALAARTALTPHHMLHPHSHYAAKGSGGGAGGGKRDAMISGSYGQTAVASGKLQQSQVQQQQPQQQQQHCLPPPPWDATSMLMDRSPMATVPSNYQAGPDTNPMRLYSATPTAGAASGGSASVGGGGAVSGAGATGAVNTATDKLSGKYRQYLRSQRMHPYAAAASLNLAAAAAAAGQTSFVPFSSAATAVAATPTFQHLPQISCYNV
binding: binds
